Data: PubChem BioAssay (NCATS)
The inconclusive results got no clear call from the source; some entries with a clear call stand among them for comparison. Potencies of inconclusive entries are doubtful fits and often do not repeat. The source made the active and inactive calls. Calls follow the shape of the dose curve; as a rule, active = well fitted curve in the direction sought with a large enough effect; inconclusive = small, poorly fitted or top-dose-only effect, or another doubt; inactive = no such curve, though single readings can be large; an effect the other way counts as inactive or inconclusive.

Columns and labels:
[1] = Quantitative High-Throughput drug screen in 47 multiple myeloma cell lines against the NCATS MIPE library collection: JIM1_ECACC cell viability assay (AID 1918964); settings: JIM1 myeloma viability, CellTiter-Glo ATP luminescence, 48 h; viability (% of DMSO): at 45.8 µM (top of the series)
How it was run: (§1)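 Inhibition of cell viability is measured here. Each line was plated at 500 cells per well, treated with MIPE 4.0 drugs, kept 48 hours at 37C, then assayed for ATP content by CellTiter-Glo luminescence.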

[2] = Quantitative High-Throughput drug screen in 47 multiple myeloma cell lines against the NCATS MIPE library collection: INA6_PLB cell viability assay (AID 1918965; also: nearly all actives have a fitted effect of over 55% in size); settings: INA6 myeloma viability, CellTiter-Glo ATP luminescence, 48 h; viability (% of control): at 45.8 µM (top of the series)
How it was run: (§2)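 Myeloma cell lines, 500 cells per well, exposed to MIPE 4.0 library compounds for 48 h at 37C, 5% CO2. Viability from ATP by CellTiter-Glo luminescence; normalised to DMSO (100%) and media-only (0%) wells.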

[3] = Quantitative High-Throughput drug screen in 47 multiple myeloma cell lines against the NCATS MIPE library collection: JJN3_DSMZ cell viability assay (AID 1918966; also: nearly all actives have a fitted effect of over 50% in size); settings: JJN3 myeloma cells viability, CellTiter-Glo ATP, 48 h; series mostly up to 45.8 µM
How it was run: as §1

[4] = Quantitative High-Throughput drug screen in 47 multiple myeloma cell lines against the NCATS MIPE library collection: KMS20_JCRB cell viability assay (AID 1918973); settings: CellTiter-Glo ATP, 48 h; viability (% of DMSO): at 45.8 µM (top of the series); also: nearly all actives have a fitted effect of over 45% in size
How it was run: as §1

[5] = Quantitative High-Throughput drug screen in 47 multiple myeloma cell lines against the NCATS MIPE library collection: KMS26_JCRB cell viability assay (AID 1918975); settings: KMS26 myeloma cells viability, CellTiter-Glo ATP, 48 h; viability (% of DMSO): at 45.8 µM (top of the series); also: nearly all actives have a fitted effect of over 45% in size
How it was run: (§3)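 Viability readout: CellTiter-Glo luminescence following 5 min room-temperature incubation with reagent. Prior exposure: 48 h, 37C, humidified 5% CO2, 500 cells per well.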

[6] = Quantitative High-Throughput drug screen in 47 multiple myeloma cell lines against the NCATS MIPE library collection: MMM1_PLB cell viability assay (AID 1918976); also: nearly all actives have a fitted effect of over 35% in size
How it was run: (§4)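 500 cells/well per myeloma line exposed to pinned MIPE 4.0 compounds for 48 h at 37 °C, 5% CO2. Viability read as ATP by CellTiter-Glo luminescence, normalised to DMSO-only (100%) and media-only (0%) wells.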

[7] = Quantitative High-Throughput drug screen in 47 multiple myeloma cell lines against the NCATS MIPE library collection: MOLP8_DSMZ cell viability assay (AID 1918977); settings: MOLP8 myeloma viability, CellTiter-Glo ATP luminescence, 48 h; viability (% of control): at 45.8 µM (top of the series); also: nearly all actives have a fitted effect of over 45% in size
How it was run: as §4

[8] = Quantitative High-Throughput drug screen in 47 multiple myeloma cell lines against the NCATS MIPE library collection: OCIMY1_PLB cell viability assay (AID 1918979); also: nearly all actives have a fitted effect of over 35% in size
How it was run: as §4

[9] = Quantitative High-Throughput drug screen in 47 multiple myeloma cell lines against the NCATS MIPE library collection: MM1S_ATCC cell viability assay (AID 1918980); also: nearly all actives have a fitted effect of over 45% in size
How it was run: as §4

[10] = Quantitative High-Throughput drug screen in 47 multiple myeloma cell lines against the NCATS MIPE library collection: MM1R_ATCC cell viability assay (AID 1918981); also: nearly all actives have a fitted effect of over 35% in size
How it was run: as §4

[11] = Quantitative High-Throughput drug screen in 47 multiple myeloma cell lines against the NCATS MIPE library collection: LP1_DSMZ cell viability assay (AID 1918982); also: nearly all actives have a fitted effect of over 35% in size
How it was run: as §4

[12] = Quantitative High-Throughput drug screen in 47 multiple myeloma cell lines against the NCATS MIPE library collection: KMS28PE_JCRB cell viability assay (AID 1918983); also: nearly all actives have a fitted effect of over 35% in size
How it was run: as §4

[13] = Quantitative High-Throughput drug screen in 47 multiple myeloma cell lines against the NCATS MIPE library collection: H1112_PLB cell viability assay (AID 1918967; also: nearly all actives have a fitted effect of over 30% in size); settings: H1112 myeloma cells viability, ATP luminescence, 48 h; viability: at 45.8 µM (top of the series)
How it was run: as §1

[14] = Quantitative High-Throughput drug screen in 47 multiple myeloma cell lines against the NCATS MIPE library collection: Karpas25_ECACC cell viability assay (AID 1918968; also: nearly all actives have a fitted effect of over 35% in size); settings: Karpas25 myeloma viability, CellTiter-Glo ATP, 48 h; viability (% of control): at 45.8 µM (top of the series)
How it was run: as §1

[15] = Quantitative High-Throughput drug screen in 47 multiple myeloma cell lines against the NCATS MIPE library collection: KMS12BM_JCRB cell viability assay (AID 1918971); also: nearly all actives have a fitted effect of over 35% in size
How it was run: as §3

[16] = Quantitative High-Throughput drug screen in 47 multiple myeloma cell lines against the NCATS MIPE library collection: KMS12PE_JCRB cell viability assay (AID 1918972); settings: KMS12PE myeloma viability, CellTiter-Glo ATP, 48 h; viability: at 45.8 µM (top of the series); also: nearly all actives have a fitted effect of over 30% in size
How it was run: as §2

[17] = Quantitative High-Throughput drug screen in 47 multiple myeloma cell lines against the NCATS MIPE library collection: KMS21BM_JCRB cell viability assay (AID 1918974); settings: ATP luminescence, 48 h; viability: at 45.8 µM (top of the series) unless noted
How it was run: as §1

[18] = Quantitative High-Throughput drug screen in 47 multiple myeloma cell lines against the NCATS MIPE library collection: NCIH929_DSMZ cell viability assay (AID 1918978); also: nearly all actives have a fitted effect of over 35% in size
How it was run: as §4

[19] = Quantitative High-Throughput drug screen in 47 multiple myeloma cell lines against the NCATS MIPE library collection: KMS27_JCRB cell viability assay (AID 1918970); settings: KMS27 myeloma cells, CellTiter-Glo ATP viability, 48 h; viability (% of DMSO): at 45.8 µM (top of the series); also: nearly all actives have a fitted effect of over 30% in size
How it was run: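 KMS27_JCRB myeloma cells, 500 per well, exposed 48 h at 37 C, 5% CO2 to MIPE 4.0 compounds. Viability from ATP by CellTiter-Glo luminescence, normalized to DMSO (100%) and medium-only (0%) wells.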

Measured: Potency
Potency is read from the fitted curve at half-maximal effect.

C[C@]12CC[C@H](O)CC1=CCC1C2CC[C@]2(C)C(n3cnc4ccccc43)=CCC12 (stereo not given in full)
inconclusive: [1] 5.9 µM [cytotoxic, partial curve, poor fit] | [2] 20.9 µM [cytotoxic, partial curve, poor fit] | [3] 33.2 µM [cytotoxic, single point] | [5] 37.2 µM [cytotoxic, single point] | [6] 33.2 µM [cytotoxic, single point] | [7] 37.2 µM [cytotoxic, single point] | [10] 20.9 µM [cytotoxic, partial curve] | [11] 18.7 µM [cytotoxic, partial curve] | [12] 37.2 µM [cytotoxic, single point]
inactive: [4] | [8] | [9]

CN(C)CCOC(c1ccccc1)c1ccccc1
inactive: [15] | [5] | [10]
inconclusive: [1] 1.05 µM [rising, full curve, poor fit] | [3] 0.0166 µM [rising, full curve, poor fit] | [13] 13.2 µM [cytotoxic, partial curve] | [16] 37.2 µM [cytotoxic, single point] | [17] 8.33 µM [rising, partial curve] | [6] 0.0083 µM [rising, full curve, poor fit] | [7] 0.0296 µM [rising, full curve, poor fit] | [18] 10.5 µM [cytotoxic, full curve] | [8] 0.0009 µM
active: [14] 9.35 µM | [4] 18.7 µM | [9] 10.5 µM

C#C[C@]1(O)CC[C@H]2[C@H]3CCc4cc(OC)ccc4[C@H]3CC[C@@]21C
inactive: [13] | [8]
inconclusive: [1] 26.4 µM [cytotoxic, partial curve, poor fit] | [3] 14.8 µM [cytotoxic, partial curve, poor fit] | [14] 74.3 µM [cytotoxic, single point] | [19] 20.9 µM [cytotoxic, partial curve] | [16] 26.4 µM [cytotoxic, single point] | [4] 16.6 µM [cytotoxic, partial curve, poor fit] | [17] 3.72 µM [cytotoxic, full curve, poor fit] | [10] 18.7 µM [cytotoxic, partial curve, poor fit] | [11] 33.2 µM [cytotoxic, partial curve, poor fit]

COc1cc(Nc2nc3ccccc3nc2NS(=O)(=O)c2ccc(NC(=O)c3ccc(C)c(OC)c3)cc2)cc(OC)c1
inconclusive: [1] 10.5 µM [cytotoxic, partial curve, poor fit] | [3] 13.2 µM [cytotoxic, partial curve, poor fit] | [13] 18.7 µM [cytotoxic, partial curve] | [14] 33.2 µM [cytotoxic, single point] | [19] 16.6 µM [cytotoxic, partial curve, poor fit] | [15] 18.7 µM [cytotoxic, partial curve, poor fit] | [16] 5.26 µM [cytotoxic, full curve, poor fit] | [17] 8.33 µM [rising, partial curve, poor fit] | [6] 13.2 µM [cytotoxic, partial curve, poor fit] | [7] 20.9 µM [cytotoxic, partial curve, poor fit] | [8] 20.9 µM [cytotoxic, partial curve, poor fit] | [10] 13.2 µM [cytotoxic, partial curve, poor fit] | [11] 14.8 µM [cytotoxic, partial curve, poor fit] | [12] 20.9 µM [cytotoxic, partial curve, poor fit]
active: [5] 11.8 µM

2 successive entries out of the list so far:
C#C[C@]1(O)CC[C@H]2[C@H]3CCc4cc(OC)ccc4[C@H]3CC[C@@]21C
inactive: [13] | [8]
inconclusive: [1] 26.4 µM [cytotoxic, partial curve, poor fit] | [3] 14.8 µM [cytotoxic, partial curve, poor fit] | [14] 74.3 µM [cytotoxic, single point] | [19] 20.9 µM [cytotoxic, partial curve] | [16] 26.4 µM [cytotoxic, single point] | [4] 16.6 µM [cytotoxic, partial curve, poor fit] | [17] 3.72 µM [cytotoxic, full curve, poor fit] | [10] 18.7 µM [cytotoxic, partial curve, poor fit] | [11] 33.2 µM [cytotoxic, partial curve, poor fit]

COc1cc(Nc2nc3ccccc3nc2NS(=O)(=O)c2ccc(NC(=O)c3ccc(C)c(OC)c3)cc2)cc(OC)c1
inconclusive: [1] 10.5 µM [cytotoxic, partial curve, poor fit] | [3] 13.2 µM [cytotoxic, partial curve, poor fit] | [13] 18.7 µM [cytotoxic, partial curve] | [14] 33.2 µM [cytotoxic, single point] | [19] 16.6 µM [cytotoxic, partial curve, poor fit] | [15] 18.7 µM [cytotoxic, partial curve, poor fit] | [16] 5.26 µM [cytotoxic, full curve, poor fit] | [17] 8.33 µM [rising, partial curve, poor fit] | [6] 13.2 µM [cytotoxic, partial curve, poor fit] | [7] 20.9 µM [cytotoxic, partial curve, poor fit] | [8] 20.9 µM [cytotoxic, partial curve, poor fit] | [10] 13.2 µM [cytotoxic, partial curve, poor fit] | [11] 14.8 µM [cytotoxic, partial curve, poor fit] | [12] 20.9 µM [cytotoxic, partial curve, poor fit]
active: [5] 11.8 µM

Later entries.

CO[C@H]1C=CO[C@@]2(C)Oc3c(C)c(O)c4c(O)c(c5c(c4c3C2=O)NC2(CCN(CC(C)C)CC2)N=5)=NC(=O)C(C)=CC=C[C@H](C)[C@H](O)[C@@H](C)[C@@H](O)[C@@H](C)[C@H](OC(C)=O)[C@H]1C
inactive: [1] | [5] | [8]
inconclusive: [2] 0.0526 µM [rising, full curve, poor fit] | [19] 0.0059 µM [cytotoxic, full curve, poor fit] | [15] 14.8 µM [cytotoxic, partial curve, poor fit] | [4] 1.18 µM [cytotoxic, full curve, poor fit] | [6] 16.6 µM [cytotoxic, partial curve, poor fit] | [7] 37.2 µM [cytotoxic, single point] | [9] 20.9 µM [cytotoxic, single point] | [12] 20.9 µM [cytotoxic, partial curve, poor fit]

CC(C)N(CCCNC(=O)Nc1ccc(C(C)(C)C)cc1)C[C@H]1O[C@@H](n2cc(Br)c3c(N)ncnc32)[C@H](O)[C@H]1O
inconclusive: [1] 0.0093 µM [cytotoxic, full curve, poor fit] | [3] 14.8 µM [cytotoxic, partial curve, poor fit] | [13] 18.7 µM [cytotoxic, partial curve] | [15] 11.8 µM [cytotoxic, partial curve, poor fit] | [17] 10.5 µM [rising, full curve, poor fit] | [8] 23.5 µM [cytotoxic, single point]
active: [4] 5.26 µM | [5] 26.4 µM | [10] 20.9 µM | [12] 14.8 µM

Cc1cn([C@@H]2C[C@@H](O)[C@H](CO)O2)c(=O)[nH]c1=O
inconclusive: [15] 3.72 µM [cytotoxic, full curve, poor fit] | [6] 0.0066 µM [rising, full curve] | [11] 0.0033 µM [rising, full curve, poor fit] | [12] 0.0059 µM [rising, full curve, poor fit]
inactive: [1] | [3] | [13] | [14] | [5] | [9]

O=C(NC1CC1)c1cccc(-c2ccc3c(NC(=O)C4CC4)n[nH]c3c2)c1
active: [13] 6.62 µM | [5] 2.64 µM
inactive: [16]
inconclusive: [1] 0.743 µM [cytotoxic, full curve, poor fit] | [3] 20.9 µM [cytotoxic, partial curve, poor fit] | [14] 14.8 µM [cytotoxic, partial curve, poor fit] | [19] 0.332 µM [cytotoxic, full curve, poor fit] | [4] 3.32 µM [cytotoxic, full curve, poor fit] | [17] 10.5 µM [rising, full curve, poor fit] | [6] 33.2 µM [cytotoxic, single point] | [7] 11.8 µM [cytotoxic, full curve, poor fit] | [8] 26.4 µM [cytotoxic, partial curve] | [11] 16.6 µM [cytotoxic, partial curve]

CCc1nc(N)nc(N)c1-c1ccc(Cl)cc1
inactive: [1] | [4] | [7] | [18] | [12]
inconclusive: [3] 8.33 µM [cytotoxic, partial curve, poor fit] | [13] 18.7 µM [cytotoxic, partial curve] | [14] 20.9 µM [cytotoxic, partial curve, poor fit] | [19] 4.18 µM [cytotoxic, full curve] | [15] 0.0033 µM [rising, full curve, poor fit] | [16] 4.69 µM [cytotoxic, full curve] | [5] 13.2 µM [cytotoxic, partial curve, poor fit] | [6] 0.0132 µM [rising, full curve] | [8] 1.05 µM [rising, partial curve, poor fit] | [10] 16.6 µM [cytotoxic, partial curve, poor fit]
active: [9] 16.6 µM

O=C(O)C1=NC(C(=O)O)CC(C=CN2c3cc(O)c(OC4OC(CO)C(O)C(O)C4O)cc3CC2C(=O)O)=C1 (stereo not given)
active: [6] 23.5 µM
inactive: [1] | [2] | [8] | [9] | [10] | [12]
inconclusive: [15] 4.18 µM [cytotoxic, full curve, poor fit] | [4] 0.166 µM [rising, full curve, poor fit] | [17] 7.43 µM [cytotoxic, partial curve, poor fit] | [5] 0.003 µM [rising, full curve, poor fit] | [7] 11.8 µM [cytotoxic, single point]
